Assay results reported in article PMC5454536.
No constants are given. Whether binding was seen depends on the method and setting. Some entries that bind do so weakly or less than the wild type.

Sequences of proteins named here, by UniProt entry; tags and fusion partners are left off. A change or cut given only in a name is not applied to a line headed by its entry.
UniProt P0AGA2: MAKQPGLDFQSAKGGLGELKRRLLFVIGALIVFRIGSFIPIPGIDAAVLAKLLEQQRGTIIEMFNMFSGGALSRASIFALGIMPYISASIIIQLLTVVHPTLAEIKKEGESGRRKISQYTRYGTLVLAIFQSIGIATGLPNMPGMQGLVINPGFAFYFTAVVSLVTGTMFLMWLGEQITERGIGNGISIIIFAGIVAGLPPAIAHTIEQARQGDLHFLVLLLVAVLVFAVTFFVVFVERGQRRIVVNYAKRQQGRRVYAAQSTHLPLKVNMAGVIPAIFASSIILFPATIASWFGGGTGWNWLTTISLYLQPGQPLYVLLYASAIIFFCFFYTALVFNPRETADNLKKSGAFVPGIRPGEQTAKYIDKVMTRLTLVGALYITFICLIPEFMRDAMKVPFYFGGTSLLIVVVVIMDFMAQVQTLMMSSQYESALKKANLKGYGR

Target: T1, SRP receptor (SR), FtsY (E. coli) (UniProt P10121)
T1 sequence: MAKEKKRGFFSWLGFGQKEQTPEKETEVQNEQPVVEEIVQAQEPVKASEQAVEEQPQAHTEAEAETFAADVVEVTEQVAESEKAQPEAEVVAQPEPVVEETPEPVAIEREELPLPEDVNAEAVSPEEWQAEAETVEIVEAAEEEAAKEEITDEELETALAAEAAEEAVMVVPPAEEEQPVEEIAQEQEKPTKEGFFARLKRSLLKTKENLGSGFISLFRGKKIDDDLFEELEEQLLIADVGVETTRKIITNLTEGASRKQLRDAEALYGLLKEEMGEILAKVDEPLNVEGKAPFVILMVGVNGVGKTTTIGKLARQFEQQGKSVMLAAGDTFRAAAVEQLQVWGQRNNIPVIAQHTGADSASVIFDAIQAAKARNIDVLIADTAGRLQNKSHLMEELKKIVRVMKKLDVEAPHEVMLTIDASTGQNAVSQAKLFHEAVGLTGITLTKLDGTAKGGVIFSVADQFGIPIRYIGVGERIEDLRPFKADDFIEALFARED
Experiment: cryo-EM structure; RNC_(1A9L)-85 or -135 (250 nM) with SRP, SR and SecYEG, GDP:AlFx, Buffer C (50 mM HEPES-KOH, 85 mM KOAc, 15 mM Mg(OAc)2, 0.02% DDM, 5 mM spermidine, 0.5 mM spermine); both purified

SecYEG translocon (from UniProt P0AGA2 14-429; P0AG96 1-127; P0AG99 1-110) (complex)
binding: binds
